Measurements from PubChem BioAssay AID2662 (National Center for Advancing Translational Sciences (NCATS), 2010).
About 110 (0.038%) of roughly 290,000 compounds were called active. The inconclusive results got no clear call from the source; some entries with a clear call stand among them for comparison. Calls come from the whole dose curve; as a rule, active = well fitted inhibition curve with a large enough effect in the polarisation, with a control signal flat (not every such curve was filed as active); inconclusive = small, poorly fitted or top-dose-only effect, or effect the other way, or a change in a side signal; inactive = no such curve, though single readings can be large or run the other way; the % refers to the polarisation. Where the call is inconclusive, the potency comes from a doubtful curve fit. “Side channel” marks fits to a control or component signal instead of the main read-out.

Amino acid sequences for entries named in this document (tags omitted).
UniProt Q03164, whole entry, looked up: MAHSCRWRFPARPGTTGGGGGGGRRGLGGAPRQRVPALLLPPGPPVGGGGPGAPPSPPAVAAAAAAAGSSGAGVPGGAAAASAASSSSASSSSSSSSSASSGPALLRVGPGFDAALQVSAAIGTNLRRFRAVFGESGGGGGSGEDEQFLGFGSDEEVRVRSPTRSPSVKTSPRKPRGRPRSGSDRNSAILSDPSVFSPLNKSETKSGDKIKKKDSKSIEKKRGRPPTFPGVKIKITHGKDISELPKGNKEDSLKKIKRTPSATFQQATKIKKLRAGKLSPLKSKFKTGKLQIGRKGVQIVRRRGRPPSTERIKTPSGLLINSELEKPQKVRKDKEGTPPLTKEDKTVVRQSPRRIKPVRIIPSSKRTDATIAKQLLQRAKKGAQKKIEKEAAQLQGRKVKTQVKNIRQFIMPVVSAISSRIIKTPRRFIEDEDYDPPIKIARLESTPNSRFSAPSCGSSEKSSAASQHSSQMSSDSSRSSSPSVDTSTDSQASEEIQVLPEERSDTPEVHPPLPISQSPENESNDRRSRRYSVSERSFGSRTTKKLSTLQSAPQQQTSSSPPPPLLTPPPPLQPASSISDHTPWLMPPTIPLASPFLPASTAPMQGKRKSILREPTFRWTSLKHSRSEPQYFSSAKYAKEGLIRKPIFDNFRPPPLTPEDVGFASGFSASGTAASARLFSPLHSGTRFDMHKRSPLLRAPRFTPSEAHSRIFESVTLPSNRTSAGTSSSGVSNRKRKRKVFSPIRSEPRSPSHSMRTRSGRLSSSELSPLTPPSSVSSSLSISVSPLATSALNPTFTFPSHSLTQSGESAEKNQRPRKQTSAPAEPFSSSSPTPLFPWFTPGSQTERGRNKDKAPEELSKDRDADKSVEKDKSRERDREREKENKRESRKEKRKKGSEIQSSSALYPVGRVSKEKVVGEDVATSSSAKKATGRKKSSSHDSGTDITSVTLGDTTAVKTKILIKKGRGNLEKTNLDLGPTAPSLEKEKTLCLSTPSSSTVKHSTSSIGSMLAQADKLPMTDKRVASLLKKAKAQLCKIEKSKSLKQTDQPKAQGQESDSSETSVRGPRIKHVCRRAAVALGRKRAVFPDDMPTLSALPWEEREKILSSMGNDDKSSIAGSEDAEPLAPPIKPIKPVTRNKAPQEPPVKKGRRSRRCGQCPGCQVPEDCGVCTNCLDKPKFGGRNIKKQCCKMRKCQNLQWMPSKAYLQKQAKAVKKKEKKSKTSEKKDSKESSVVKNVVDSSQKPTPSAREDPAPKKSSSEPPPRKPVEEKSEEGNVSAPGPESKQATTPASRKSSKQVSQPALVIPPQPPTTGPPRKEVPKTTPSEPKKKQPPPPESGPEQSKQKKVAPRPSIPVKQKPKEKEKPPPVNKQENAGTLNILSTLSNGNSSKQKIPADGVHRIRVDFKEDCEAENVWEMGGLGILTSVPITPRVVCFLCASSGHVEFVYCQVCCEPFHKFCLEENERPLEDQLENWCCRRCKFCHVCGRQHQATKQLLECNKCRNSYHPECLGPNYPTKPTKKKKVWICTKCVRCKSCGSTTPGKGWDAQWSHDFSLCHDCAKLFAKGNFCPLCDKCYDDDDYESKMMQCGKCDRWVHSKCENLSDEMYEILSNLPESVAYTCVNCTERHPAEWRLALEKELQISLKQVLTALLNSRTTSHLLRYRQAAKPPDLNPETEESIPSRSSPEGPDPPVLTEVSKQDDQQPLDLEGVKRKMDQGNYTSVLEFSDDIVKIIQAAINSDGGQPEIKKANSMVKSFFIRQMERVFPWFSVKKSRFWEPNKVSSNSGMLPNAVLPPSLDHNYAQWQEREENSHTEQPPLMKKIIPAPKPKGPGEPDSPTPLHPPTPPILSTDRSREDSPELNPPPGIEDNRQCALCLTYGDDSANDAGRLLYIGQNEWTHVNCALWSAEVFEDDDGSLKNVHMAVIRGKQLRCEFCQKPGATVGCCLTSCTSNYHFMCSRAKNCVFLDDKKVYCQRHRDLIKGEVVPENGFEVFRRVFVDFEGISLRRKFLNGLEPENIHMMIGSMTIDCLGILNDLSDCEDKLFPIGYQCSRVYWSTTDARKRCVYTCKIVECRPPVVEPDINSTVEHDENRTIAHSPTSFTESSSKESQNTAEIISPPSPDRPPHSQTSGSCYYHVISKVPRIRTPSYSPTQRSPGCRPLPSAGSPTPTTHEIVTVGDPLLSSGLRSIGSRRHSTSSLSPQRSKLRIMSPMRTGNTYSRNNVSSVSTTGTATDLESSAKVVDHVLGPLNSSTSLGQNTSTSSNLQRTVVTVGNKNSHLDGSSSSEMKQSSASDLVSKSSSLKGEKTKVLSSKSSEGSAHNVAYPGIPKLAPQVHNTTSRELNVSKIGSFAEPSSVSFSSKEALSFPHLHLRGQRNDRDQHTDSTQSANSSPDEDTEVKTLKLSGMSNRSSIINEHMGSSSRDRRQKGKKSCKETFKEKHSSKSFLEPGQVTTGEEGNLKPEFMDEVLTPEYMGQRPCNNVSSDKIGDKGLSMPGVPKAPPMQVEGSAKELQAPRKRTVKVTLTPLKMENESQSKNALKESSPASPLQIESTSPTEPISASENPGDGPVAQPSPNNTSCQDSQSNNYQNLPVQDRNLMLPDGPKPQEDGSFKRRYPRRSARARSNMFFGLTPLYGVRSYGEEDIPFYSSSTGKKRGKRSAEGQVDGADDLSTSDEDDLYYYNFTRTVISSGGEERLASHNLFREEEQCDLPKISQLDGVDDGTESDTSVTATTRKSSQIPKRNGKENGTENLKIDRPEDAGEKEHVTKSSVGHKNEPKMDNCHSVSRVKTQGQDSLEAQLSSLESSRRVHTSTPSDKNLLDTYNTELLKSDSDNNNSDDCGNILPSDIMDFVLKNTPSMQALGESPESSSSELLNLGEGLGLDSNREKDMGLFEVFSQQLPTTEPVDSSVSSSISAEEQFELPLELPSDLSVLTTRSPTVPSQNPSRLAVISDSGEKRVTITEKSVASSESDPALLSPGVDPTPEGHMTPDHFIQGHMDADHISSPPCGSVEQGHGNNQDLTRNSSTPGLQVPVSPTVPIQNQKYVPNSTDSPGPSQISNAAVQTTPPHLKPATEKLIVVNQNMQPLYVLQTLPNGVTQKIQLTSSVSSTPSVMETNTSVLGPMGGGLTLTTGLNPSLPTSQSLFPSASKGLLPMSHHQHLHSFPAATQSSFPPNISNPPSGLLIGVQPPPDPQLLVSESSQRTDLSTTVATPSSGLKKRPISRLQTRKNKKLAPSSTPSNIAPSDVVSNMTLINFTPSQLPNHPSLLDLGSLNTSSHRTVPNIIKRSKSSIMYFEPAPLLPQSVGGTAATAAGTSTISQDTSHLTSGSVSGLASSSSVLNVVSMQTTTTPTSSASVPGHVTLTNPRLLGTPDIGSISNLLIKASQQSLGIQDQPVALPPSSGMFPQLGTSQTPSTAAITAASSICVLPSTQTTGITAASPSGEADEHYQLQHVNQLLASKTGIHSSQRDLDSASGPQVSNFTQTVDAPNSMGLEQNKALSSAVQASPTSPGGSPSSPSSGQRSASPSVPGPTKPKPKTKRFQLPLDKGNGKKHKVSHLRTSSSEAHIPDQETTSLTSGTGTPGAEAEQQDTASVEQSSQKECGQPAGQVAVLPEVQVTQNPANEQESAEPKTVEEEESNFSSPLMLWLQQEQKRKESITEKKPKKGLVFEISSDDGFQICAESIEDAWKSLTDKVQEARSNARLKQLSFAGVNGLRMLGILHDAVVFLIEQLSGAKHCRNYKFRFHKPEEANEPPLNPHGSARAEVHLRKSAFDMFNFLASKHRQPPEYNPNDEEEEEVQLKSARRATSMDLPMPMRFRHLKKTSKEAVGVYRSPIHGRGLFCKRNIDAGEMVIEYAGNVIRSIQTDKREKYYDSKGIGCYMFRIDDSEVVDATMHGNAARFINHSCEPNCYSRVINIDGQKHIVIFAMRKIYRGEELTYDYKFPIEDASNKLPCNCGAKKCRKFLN

Target: Histone-lysine N-methyltransferase 2A (Homo sapiens) (UniProt Q03164)
Test: qHTS Fluorescence Polarization Assay for Inhibitors of MLL CXXC domain - DNA interaction
Conditions: MLL-CXXC / FITC-HOXA9 DNA fluorescence polarization; series mostly up to 115 µM
How it was run: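 Purified MLL-CXXC (added from a 7 uM solution) was preincubated 5 min at ambient with pinned compounds in 50 mM Tris-HCl pH 7.5, 50 mM NaCl, 1 mM DTT, 0.05% BSA. Fluorescein-labeled HOX-A9 DNA (50 nM solution) followed, 30 min, then polarization read.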
Potency is the fitted concentration of half-maximal effect.

Compound | Potency
COCC(=O)N/N=C/c1c(C)[nH]n(-c2ccccc2)c1=O | inactive
COc1cc(CN2CCNC(=O)C2CC(=O)NC2CCCCC2)cc(OC)c1 (stereo not given) | inconclusive: 89.1 µM [inhibitor, single point]
Cc1ccc(S(=O)(=O)Nc2cc(-c3ccc(Cl)cc3)nn2C)cc1 | inactive
CC(=O)c1ccc2c(c1)C1C=CCC1C(C(=O)O)N2 (stereo not given) | inconclusive: 70.8 µM [quencher, side channel, single point]
COc1ccc(C(=O)N/C(=C/c2cccnc2)C(=O)N2CCN(C)CC2)cc1OC | inconclusive: 63.1 µM [quencher, side channel, single point]
COc1ccc2cc(C(=O)NCc3ccccc3)[nH]c2c1 | inconclusive: 3.16 µM [fluorescent, side channel, partial curve]
C=CCn1c(SCC)nc2sc3c(c2c1=O)CCc1ccccc1-3 | inactive
CN(CC(=O)Nc1ccccc1Br)C(=O)c1ccncc1 | inactive
Cc1nn(Cc2ccccc2)c(Cl)c1/C=C/C(=O)OC(C)C(=O)N1CCCC1 (stereo not given) | inconclusive: 31.6 µM [inhibitor, partial curve]
COc1cccc(/C=N/Nc2nc3ccccc3[nH]2)c1O | inconclusive: 17.8 µM [quencher, side channel, partial curve]
Cc1cc(C=C2C(=O)c3ccccc3C2=O)c(C)n1-c1ccc(Cl)cc1 | inconclusive: 70.8 µM [fluorescent, side channel, single point]
Cc1cccc(NC(=S)NCCN2CCOCC2)c1 | inactive
CSc1ccc(/C=N/N2CCN(C)CC2)cc1 | inconclusive: 1.12 µM [fluorescent, side channel, full curve, poor fit]
O=C(Nc1cccc([N+](=O)[O-])c1)N1CCN(c2ccccc2)CC1 | inconclusive: 1.12 µM [fluorescent, side channel, full curve, poor fit]
COCCNC(=S)N/N=C(\C)c1ccccc1F | inconclusive: 2.51 µM [fluorescent, side channel, full curve]
Cc1noc(NS(=O)(=O)c2ccc(NC(=O)c3oc4ccc(Cl)cc4c3C)cc2)c1C | inconclusive: 39.8 µM [quencher, side channel, single point]
Cc1ccccc1-n1nnnc1SC(C)C(=O)Nc1ccc(N2CCN(C)CC2)cc1 (stereo not given) | inconclusive: 31.6 µM [quencher, side channel, partial curve]
Cc1ccc(-c2nc(C(=O)NCCCN3CCOCC3)cc3c2[nH]c2ccccc23)cc1 | inconclusive: 28.2 µM [quencher, side channel, partial curve]
CCCC(=O)NC(c1ccccc1)c1ccc2cccnc2c1O (stereo not given) | inconclusive: 22.4 µM [inhibitor, partial curve]
COc1cccc(/C=N/n2c(-c3n[nH]c4c3CCC4)n[nH]c2=S)c1O | inactive

Compound | Potency
CCC(=O)Nc1cccc2c1C(=O)N(C)C2=O | inactive
O=C(O)c1cc(-c2ccc(/C=c3\sc4nc5ccc(Br)cc5n4c3=O)o2)ccc1Cl | inconclusive: 35.5 µM [fluorescent, side channel, partial curve]
COc1ccc(C(=O)NCc2nnc(SCC(=O)Nc3nnc(C)s3)o2)cc1 | inconclusive: 15.8 µM [inhibitor, single point]
CCOC(=O)C1=C(c2ccccc2)NC(N)=NC1c1ccc(OCc2ccc(C(=O)OC)cc2)cc1 (stereo not given) | inconclusive: 44.7 µM [quencher, side channel, partial curve]
O=C(O)CCC(=O)NNc1ncnc2ccccc12 | inconclusive: 100 µM [inhibitor, partial curve, poor fit]
COc1cc(-c2cc(-c3ccc(N)cc3)[nH]c(=O)c2C#N)cc(OC)c1OC | inconclusive: 63.1 µM [fluorescent, side channel, single point]
COCc1cc(=O)[nH]c(Sc2c(-c3ccccc3)c3ccc(Cl)cc3[nH]c2=O)n1 | inconclusive: 70.8 µM [quencher, side channel, single point]
Cc1nn(C)c(C)c1CN(C)C(=O)C1(C)CC1(Br)Br (stereo not given) | inactive
CN1[C@@H]2CC[C@H]1CC(OC(c1ccccc1)c1ccccc1)C2 (stereo not given in full) | inconclusive: 89.1 µM [fluorescent, single point]
Cn1nc(N)c2c(-c3ccc(Cl)cc3)c(C#N)c(N)nc21 | inactive
CC(=O)NC1C(=O)N(CCN2CCOCC2)c2ccc(C)cc21 (stereo not given) | inconclusive: 39.8 µM [inhibitor, single point]
COc1ccc(C(=O)/C=C/c2ccc(N(C)C)cc2)c(OC)c1 | inconclusive: 6.31 µM [fluorescent, side channel, full curve]
N=C(CC1CC(=O)NC(=O)C1)C1=C(O)CCCC1=O | inconclusive: 14.1 µM [fluorescent, side channel, single point]
CCCCc1cc(=O)oc2cc(OC(C)C(=O)NCC3CCC(C(=O)O)CC3)c(Cl)cc12 (stereo not given) | inconclusive: 11.2 µM [fluorescent, side channel, single point]
CC1=NN(c2ccc(C(=O)O)cc2)C(=O)/C1=C\c1ccc(OC(=O)c2cccs2)cc1 | inconclusive: 35.5 µM [inhibitor, single point]
COC(=O)C1=NN[C@H](C(=O)OC)[C@H]1c1ccccc1 | inactive
CC1CCN(c2c(NCC3CCC(C(=O)NCCc4ccc(Cl)cc4)CC3)c(=O)c2=O)CC1 (stereo not given) | inconclusive: 7.08 µM [inhibitor, full curve]
COc1ccc(N(Cc2cc(=O)[nH]c3ccccc23)C(C)=O)cc1 | inconclusive: 8.91 µM [inhibitor, single point]
O=C1CSC(c2ccc([N+](=O)[O-])cc2)N1c1ccccc1 (stereo not given) | inconclusive: 35.5 µM [inhibitor, single point]
CCOC(=O)CNc1c(-c2ccc(O)cc2)nc2ccc(Cl)cn12 | inactive

An excerpt from above in order of molecular weight, falling:
Compound | Potency
O=C(O)c1cc(-c2ccc(/C=c3\sc4nc5ccc(Br)cc5n4c3=O)o2)ccc1Cl | inconclusive: 35.5 µM [fluorescent, side channel, partial curve]
Cc1cc(C=C2C(=O)c3ccccc3C2=O)c(C)n1-c1ccc(Cl)cc1 | inconclusive: 70.8 µM [fluorescent, side channel, single point]
CCCC(=O)NC(c1ccccc1)c1ccc2cccnc2c1O (stereo not given) | inconclusive: 22.4 µM [inhibitor, partial curve]
